In patent publication US20260218210A1, “ENGINEERED BACTERIA FOR CELLULAR BARRIER M[…] PROTECTION” (The Trustees of Columbia University in the City of New York, priority 2023, published 2026):
At least one compound was matched to its structure with a doubt left.

Test system: acute DSS colitis in NFD/FDD fed mice
Test: Acute DSS colitis in mice fed fiber-deficient (no fiber) diet
Format: in vivo, mouse
Details: five days DSS colitis, supplementation in the drinking water
Procedure: Mice and diets C57BL/6J and Il10^−/− mice were purchased from Jackson Laboratory. Animals were purchased from maximum barrier rooms and maintained in high barrier animal rooms at Columbia University. All mice were maintained under specific-pathogen-free (SPF) conditions for the duration of the experiments. All experiments were performed under IACUC approved guidelines. To control for microbiota and cage effects, mice were shuffled between cages before the start of each experiment and randomly assigned to each group. All experiments were performed with gender and age (8-12 weeks at start of experiment) matched mice. Animals were maintained on normal diet (PicoLab Rodent Diet 20, 5053) until start of experiments and then switched to fiber-deficient diet (Teklad Custom Diet, TD.00278) or continued on ND as indicated. ND contained 21% protein, 53.4% carbohydrates, 5% fat, 5% fiber and 4 kcal/g. […]
DSS colitis and GLP-1 modulating therapies For induction of acute DSS colitis, between 0.5% to 6% w/v dextran sulfate sodium (DSS, colitis grade, MPbio) was supplemented in drinking water for five days. […] Mice were monitored daily for changes in body weight. […]
Histological analyses The colonic tissue was carefully rinsed with PBS to remove fecal matter. […] A pathologist assessed and scored H&E stained slides for colitis grading. […]

CCCC(=O)O [butyrate]
colitis severity: eased
